Reference: US9950062B2, “Compounds and compositions as TLR activity modulators” (priority 2009, dated 2018)
For some of these results: At least one read-out could not be matched to a standard name with certainty. Some entries share one result that the patent states for a list of compounds.

Columns and labels:
[1] = Stability studies of adsorbed compounds; details: over at least a 3 week period
[2] = Adsorption to and desorption from aluminum hydroxide, HPLC (compound-modified alum formulation); assay type: physicochemical; details: desorption with 0.5M KH2PO4
Method: SDS-PAGE was used to evaluate the effect of the binding of compound 1 to aluminum hydroxide adjuvant on the ability of MenB antigens to bind to aluminum hydroxide adjuvant. Compound 1 was dissolved in 10 mM NaOH at 0.5 mg/ml final concentration. Alum and Compound 1 were combined at 1:6 (Compound 1:Alum) weight ratio in the presence of 10 mM Histidine final concentration. The pH was adjusted to 9.2 and the mixture was gently agitated for 3 hours at room temperature, allowing the reaction to occur. The mixture was centrifuged at 5000×g for 10 minutes and the supernatant discarded. The pellet (i.e. the compound 1-modified Alum) was resuspended in the initial Alum buffer to obtain the starting alum concentration. The pH was adjusted to 6.5. The modified Alum was then used for the formulation with the MenB antigens.
The adsorption of compound 16 and compound 17 to aluminum hydroxide was also evaluated using the alum formulation described above for compound 1. […] In addition, SDS-PAGE analysis of antigen binding in the presence of compound 16 or compound 17 was carried out as described above.

Cc1cc(OCCOCCOCCP(=O)(O)O)ccc1CCc1cnc2c(N)nc3cc(CCC(=O)O)ccc3c2c1 [Compound 20, 3-(5-amino-2-(2-methyl-4-(2-(2-(2-phosphonoethoxy)ethoxy)ethoxy)phenethyl)benzo[f][1,7]naphthyridin-8-yl)propanoic acid]
adsorption to aluminium hydroxide adjuvant over time [1]: at least 95%

Cc1ccc2c(c1)nc(N)c1ncc(CCc3ccc(OCCCP(=O)(O)O)cc3C)cc12 [Compound 1, 3-(4-(2-(5-amino-8-methylbenzo[f][1,7]naphthyridin-2-yl)ethyl)-3-methylphenoxy)propylphosphonic acid]
adsorption to aluminium hydroxide adjuvant over time [1]: at least 95%

Cc1cc(OCCCC(F)(F)P(=O)(O)O)ccc1CCc1cnc2c(N)nc3cc(CCC(=O)O)ccc3c2c1 [Compound 16, 3-(5-amino-2-(4-(4,4-difluoro-4-phosphonobutoxy)-2-methylphenethyl)benzo[f][1,7]naphthyridin-8-yl)propanoic acid]
recovery of compound after desorption from aluminum hydroxide [2]: recovered
adsorption to aluminium hydroxide adjuvant over time [1]: at least 95%
